Experiment [1] has as its target α5β1 integrin (UniProt P08648). Nature of the experiment: ELISA on plate-coated integrin α5β1.
The target of experiment [2] is αVβ3 integrin (UniProt P06756). Kind of experiment: ELISA on plate-coated integrin αVβ3. For orientation: In an ELISA, binding on a coated surface is turned into a signal by an enzyme label.

Chains of the proteins cited; added tags and fusions are not shown. Lines headed by an entry give the natural chain unless they say otherwise; changes in a name come on top.
UniProt P08648: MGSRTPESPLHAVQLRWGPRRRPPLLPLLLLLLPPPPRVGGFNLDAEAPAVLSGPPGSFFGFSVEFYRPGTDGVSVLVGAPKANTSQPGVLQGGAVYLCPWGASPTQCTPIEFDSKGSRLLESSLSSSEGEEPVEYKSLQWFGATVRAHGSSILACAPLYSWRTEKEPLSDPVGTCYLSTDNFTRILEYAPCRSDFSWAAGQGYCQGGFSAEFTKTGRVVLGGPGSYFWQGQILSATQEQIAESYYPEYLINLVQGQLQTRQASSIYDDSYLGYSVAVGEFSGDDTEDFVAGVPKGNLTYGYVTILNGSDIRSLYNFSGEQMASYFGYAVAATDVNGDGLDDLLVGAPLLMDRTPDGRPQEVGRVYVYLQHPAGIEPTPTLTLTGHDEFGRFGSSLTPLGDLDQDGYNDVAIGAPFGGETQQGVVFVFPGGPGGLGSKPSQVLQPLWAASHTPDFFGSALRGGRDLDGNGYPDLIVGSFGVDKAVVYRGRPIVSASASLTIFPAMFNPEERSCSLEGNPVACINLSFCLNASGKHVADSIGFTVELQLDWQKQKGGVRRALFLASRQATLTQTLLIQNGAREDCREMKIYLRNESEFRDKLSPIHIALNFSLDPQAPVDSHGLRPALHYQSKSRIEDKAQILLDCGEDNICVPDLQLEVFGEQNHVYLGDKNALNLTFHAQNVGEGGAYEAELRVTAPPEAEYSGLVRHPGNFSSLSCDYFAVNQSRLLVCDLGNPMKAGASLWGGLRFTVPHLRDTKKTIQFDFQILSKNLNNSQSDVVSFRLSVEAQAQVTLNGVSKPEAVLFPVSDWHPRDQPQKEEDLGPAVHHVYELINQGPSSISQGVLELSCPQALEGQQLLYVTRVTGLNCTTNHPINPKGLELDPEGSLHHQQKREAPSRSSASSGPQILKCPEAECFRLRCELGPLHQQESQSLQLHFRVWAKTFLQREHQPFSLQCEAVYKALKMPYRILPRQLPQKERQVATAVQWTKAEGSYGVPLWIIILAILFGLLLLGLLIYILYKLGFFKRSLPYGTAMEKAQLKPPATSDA
UniProt P06756: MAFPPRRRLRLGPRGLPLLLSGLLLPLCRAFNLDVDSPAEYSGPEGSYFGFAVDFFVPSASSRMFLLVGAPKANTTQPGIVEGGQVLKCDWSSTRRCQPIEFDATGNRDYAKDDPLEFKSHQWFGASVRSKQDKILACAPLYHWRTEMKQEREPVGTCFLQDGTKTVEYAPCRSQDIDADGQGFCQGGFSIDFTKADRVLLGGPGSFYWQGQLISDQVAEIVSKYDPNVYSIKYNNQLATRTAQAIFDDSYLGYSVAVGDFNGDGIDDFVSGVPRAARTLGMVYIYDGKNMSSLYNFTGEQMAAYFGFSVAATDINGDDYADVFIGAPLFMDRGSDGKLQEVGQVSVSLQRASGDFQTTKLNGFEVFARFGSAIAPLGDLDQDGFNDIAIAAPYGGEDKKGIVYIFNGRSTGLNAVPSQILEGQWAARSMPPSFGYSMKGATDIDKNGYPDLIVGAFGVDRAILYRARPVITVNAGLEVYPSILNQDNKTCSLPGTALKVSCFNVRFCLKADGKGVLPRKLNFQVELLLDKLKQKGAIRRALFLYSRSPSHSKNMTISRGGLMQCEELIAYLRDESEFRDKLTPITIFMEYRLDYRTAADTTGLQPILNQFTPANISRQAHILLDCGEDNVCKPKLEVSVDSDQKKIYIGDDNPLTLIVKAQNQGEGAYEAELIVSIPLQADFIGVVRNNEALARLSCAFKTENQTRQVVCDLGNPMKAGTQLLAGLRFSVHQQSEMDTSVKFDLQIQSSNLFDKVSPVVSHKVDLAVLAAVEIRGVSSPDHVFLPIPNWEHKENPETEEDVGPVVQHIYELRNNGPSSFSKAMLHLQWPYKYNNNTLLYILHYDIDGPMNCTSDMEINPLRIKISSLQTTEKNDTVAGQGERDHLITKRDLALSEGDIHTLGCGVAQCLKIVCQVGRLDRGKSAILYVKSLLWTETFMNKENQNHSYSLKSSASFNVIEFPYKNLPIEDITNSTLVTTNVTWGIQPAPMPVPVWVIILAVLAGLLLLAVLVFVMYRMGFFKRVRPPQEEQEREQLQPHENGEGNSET

These are yes or no findings as the source states them, for the method shown. Some entries that bind do so weakly or less than the wild type.

B1: 241-460 K423Q human ANGPTL3 construct (ligand)
chain: GIPAECTTIYNRGEHTSGMYAIRPSNSQVFHVYCDVISGSPWTLIQHRIDGSQNFNETWENYKYGFGRLDGEFWLGLEKIYSIVKQSNYVLRIELEDWKDNKHYIEYSFYLGNHETNYTLHLVAITGNVPNAIPENKDLVFSTWDHKAKGHFNCPEGYSGGWWWHDECGENNLNGKYNKPRAQSKPERRRGLSWKSQNGRLYSIKSTKMLIHPTDSESFE
On to B1, for which the binding entry in experiment [1] and in experiment [2] was “binds” each time.

B2: 225-460 K423Q human ANGPTL3 construct (ligand)
chain: TTPFLQLNEIRNVKHDGIPAECTTIYNRGEHTSGMYAIRPSNSQVFHVYCDVISGSPWTLIQHRIDGSQNFNETWENYKYGFGRLDGEFWLGLEKIYSIVKQSNYVLRIELEDWKDNKHYIEYSFYLGNHETNYTLHLVAITGNVPNAIPENKDLVFSTWDHKAKGHFNCPEGYSGGWWWHDECGENNLNGKYNKPRAQSKPERRRGLSWKSQNGRLYSIKSTKMLIHPTDSESFE
On to B2, for which the binding result in experiment [1] and in experiment [2] was “binds” in each case.

B3: 242-460 K423Q human ANGPTL3 construct (ligand)
chain: IPAECTTIYNRGEHTSGMYAIRPSNSQVFHVYCDVISGSPWTLIQHRIDGSQNFNETWENYKYGFGRLDGEFWLGLEKIYSIVKQSNYVLRIELEDWKDNKHYIEYSFYLGNHETNYTLHLVAITGNVPNAIPENKDLVFSTWDHKAKGHFNCPEGYSGGWWWHDECGENNLNGKYNKPRAQSKPERRRGLSWKSQNGRLYSIKSTKMLIHPTDSESFE
As for B3, the binding entry in experiment [1] and in experiment [2] was “binds” in each case.

B4: 233-460 K423Q human ANGPTL3 construct (ligand)
chain: EIRNVKHDGIPAECTTIYNRGEHTSGMYAIRPSNSQVFHVYCDVISGSPWTLIQHRIDGSQNFNETWENYKYGFGRLDGEFWLGLEKIYSIVKQSNYVLRIELEDWKDNKHYIEYSFYLGNHETNYTLHLVAITGNVPNAIPENKDLVFSTWDHKAKGHFNCPEGYSGGWWWHDECGENNLNGKYNKPRAQSKPERRRGLSWKSQNGRLYSIKSTKMLIHPTDSESFE
B4: the binding result in experiment [1] and in experiment [2] was “binds” in each case.

B5: 228-460 K423Q human ANGPTL3 construct (ligand)
chain: FLQLNEIRNVKHDGIPAECTTIYNRGEHTSGMYAIRPSNSQVFHVYCDVISGSPWTLIQHRIDGSQNFNETWENYKYGFGRLDGEFWLGLEKIYSIVKQSNYVLRIELEDWKDNKHYIEYSFYLGNHETNYTLHLVAITGNVPNAIPENKDLVFSTWDHKAKGHFNCPEGYSGGWWWHDECGENNLNGKYNKPRAQSKPERRRGLSWKSQNGRLYSIKSTKMLIHPTDSESFE
For the molecule B5, the binding result in experiment [1] and in experiment [2] was “binds” throughout.

These data come from US20160008433A1.
